From paper PMC8789823
These are yes or no findings as the source states them, for the method shown. Binding seen in cells or lysates may run through a third protein. Some binding calls cover weakened binding; strength is not graded here.

The chains behind the UniProt entries cited, without tags or fusion partners. Where a name states a change or a piece, a line headed by the entry shows the natural chain unless it says otherwise. A line that says so, or that is headed by a name, gives the form on record, which may keep a tag or linker.
AT1R T336A (phospho-code single-Ala mutant) (P30556, form named): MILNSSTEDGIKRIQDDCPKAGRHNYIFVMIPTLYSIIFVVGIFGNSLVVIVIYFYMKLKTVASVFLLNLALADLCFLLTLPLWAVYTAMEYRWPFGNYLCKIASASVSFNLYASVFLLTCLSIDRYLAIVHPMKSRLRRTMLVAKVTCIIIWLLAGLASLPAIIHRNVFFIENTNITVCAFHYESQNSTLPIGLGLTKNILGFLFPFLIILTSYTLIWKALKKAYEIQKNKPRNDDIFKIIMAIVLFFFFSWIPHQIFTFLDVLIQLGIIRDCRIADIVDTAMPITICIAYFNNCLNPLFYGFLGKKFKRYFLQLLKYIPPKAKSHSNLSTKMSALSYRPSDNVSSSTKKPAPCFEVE
AT1R S328A (phospho-code single-Ala mutant) (P30556, form named): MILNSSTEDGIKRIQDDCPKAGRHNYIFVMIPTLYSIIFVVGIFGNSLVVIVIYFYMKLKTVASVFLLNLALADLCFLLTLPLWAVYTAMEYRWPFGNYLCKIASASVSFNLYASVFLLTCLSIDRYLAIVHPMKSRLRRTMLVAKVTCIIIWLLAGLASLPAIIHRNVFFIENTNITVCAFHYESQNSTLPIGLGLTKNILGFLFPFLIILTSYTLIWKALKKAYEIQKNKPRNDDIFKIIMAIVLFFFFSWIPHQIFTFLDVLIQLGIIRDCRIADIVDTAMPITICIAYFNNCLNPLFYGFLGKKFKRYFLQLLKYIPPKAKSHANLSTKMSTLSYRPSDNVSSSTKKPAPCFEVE
AT1R T332A (phospho-code single-Ala mutant) (P30556, form named): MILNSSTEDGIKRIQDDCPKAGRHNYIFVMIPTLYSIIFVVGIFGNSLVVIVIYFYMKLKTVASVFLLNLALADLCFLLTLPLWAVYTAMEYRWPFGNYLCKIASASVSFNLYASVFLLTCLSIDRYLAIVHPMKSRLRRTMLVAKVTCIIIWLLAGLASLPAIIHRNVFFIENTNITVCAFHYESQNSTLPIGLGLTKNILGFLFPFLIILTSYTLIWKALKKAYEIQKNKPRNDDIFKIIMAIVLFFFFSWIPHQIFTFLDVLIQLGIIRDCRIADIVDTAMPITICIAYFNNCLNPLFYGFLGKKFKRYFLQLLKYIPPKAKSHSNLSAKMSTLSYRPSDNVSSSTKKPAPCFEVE
AT1R S335A (phospho-code single-Ala mutant) (P30556, form named): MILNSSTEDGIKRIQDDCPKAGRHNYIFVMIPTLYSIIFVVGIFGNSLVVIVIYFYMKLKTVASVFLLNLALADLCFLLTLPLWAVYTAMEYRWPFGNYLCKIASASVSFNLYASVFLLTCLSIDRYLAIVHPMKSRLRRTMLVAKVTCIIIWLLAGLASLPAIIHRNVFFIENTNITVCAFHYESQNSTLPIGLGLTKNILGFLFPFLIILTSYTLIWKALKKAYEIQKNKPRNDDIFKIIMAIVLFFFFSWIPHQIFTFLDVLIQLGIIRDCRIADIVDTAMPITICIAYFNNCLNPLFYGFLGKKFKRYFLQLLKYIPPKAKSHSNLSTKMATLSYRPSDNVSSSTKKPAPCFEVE
AT1R S338A (phospho-code single-Ala mutant) (P30556, form named): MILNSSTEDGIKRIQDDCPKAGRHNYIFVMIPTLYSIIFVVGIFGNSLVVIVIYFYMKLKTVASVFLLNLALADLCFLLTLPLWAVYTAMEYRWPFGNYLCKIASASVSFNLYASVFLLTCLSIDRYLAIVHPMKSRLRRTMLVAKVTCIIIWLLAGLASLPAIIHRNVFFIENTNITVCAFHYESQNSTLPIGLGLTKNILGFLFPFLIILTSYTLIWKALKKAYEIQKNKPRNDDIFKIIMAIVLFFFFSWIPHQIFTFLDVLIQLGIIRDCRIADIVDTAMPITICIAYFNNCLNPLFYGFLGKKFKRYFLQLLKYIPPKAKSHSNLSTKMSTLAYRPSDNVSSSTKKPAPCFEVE
AT1R S331A (phospho-code single-Ala mutant) (P30556, form named): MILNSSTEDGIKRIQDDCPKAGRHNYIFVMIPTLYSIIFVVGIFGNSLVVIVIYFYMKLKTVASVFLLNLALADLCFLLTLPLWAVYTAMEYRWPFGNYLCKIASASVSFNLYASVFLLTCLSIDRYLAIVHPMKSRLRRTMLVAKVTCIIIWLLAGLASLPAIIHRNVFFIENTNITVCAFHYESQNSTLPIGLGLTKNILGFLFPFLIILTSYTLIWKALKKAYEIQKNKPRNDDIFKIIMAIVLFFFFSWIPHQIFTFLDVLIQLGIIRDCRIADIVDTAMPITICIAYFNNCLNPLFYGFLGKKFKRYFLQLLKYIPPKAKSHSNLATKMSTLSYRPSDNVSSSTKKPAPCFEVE
AT1R S326A (phospho-code single-Ala mutant) (P30556, form named): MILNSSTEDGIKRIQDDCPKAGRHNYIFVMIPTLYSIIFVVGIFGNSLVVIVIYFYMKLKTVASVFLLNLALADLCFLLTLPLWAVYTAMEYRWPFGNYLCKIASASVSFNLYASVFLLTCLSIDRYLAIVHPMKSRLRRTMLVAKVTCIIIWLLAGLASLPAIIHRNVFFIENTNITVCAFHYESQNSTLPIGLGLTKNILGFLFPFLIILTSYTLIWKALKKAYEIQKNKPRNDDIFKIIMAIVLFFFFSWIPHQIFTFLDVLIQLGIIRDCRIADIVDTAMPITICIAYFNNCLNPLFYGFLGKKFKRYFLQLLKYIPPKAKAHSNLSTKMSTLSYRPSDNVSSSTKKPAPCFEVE
UniProt P50148: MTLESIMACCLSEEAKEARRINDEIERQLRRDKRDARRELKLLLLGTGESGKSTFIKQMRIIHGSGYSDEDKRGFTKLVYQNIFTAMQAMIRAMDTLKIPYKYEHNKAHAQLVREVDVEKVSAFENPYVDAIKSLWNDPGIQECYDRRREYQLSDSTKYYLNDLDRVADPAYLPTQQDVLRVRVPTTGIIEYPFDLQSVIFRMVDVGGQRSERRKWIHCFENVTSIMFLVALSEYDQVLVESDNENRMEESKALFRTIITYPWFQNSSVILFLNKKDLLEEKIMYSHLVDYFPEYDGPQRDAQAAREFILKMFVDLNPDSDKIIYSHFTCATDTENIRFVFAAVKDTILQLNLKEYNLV
UniProt P49407: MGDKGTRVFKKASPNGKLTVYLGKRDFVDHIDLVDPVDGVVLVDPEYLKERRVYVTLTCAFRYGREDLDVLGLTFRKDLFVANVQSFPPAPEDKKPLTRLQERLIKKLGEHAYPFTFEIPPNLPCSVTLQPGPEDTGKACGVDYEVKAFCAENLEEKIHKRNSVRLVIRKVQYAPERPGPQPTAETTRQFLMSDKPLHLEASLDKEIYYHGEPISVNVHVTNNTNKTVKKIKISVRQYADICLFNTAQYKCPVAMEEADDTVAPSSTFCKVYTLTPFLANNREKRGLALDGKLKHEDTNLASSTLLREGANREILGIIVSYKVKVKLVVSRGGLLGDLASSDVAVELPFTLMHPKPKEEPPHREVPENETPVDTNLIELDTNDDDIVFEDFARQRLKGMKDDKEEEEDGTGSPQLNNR
Lg-β-arrestin1 with the truncation in the finger-loop region (∆FLR) (P49407, form named): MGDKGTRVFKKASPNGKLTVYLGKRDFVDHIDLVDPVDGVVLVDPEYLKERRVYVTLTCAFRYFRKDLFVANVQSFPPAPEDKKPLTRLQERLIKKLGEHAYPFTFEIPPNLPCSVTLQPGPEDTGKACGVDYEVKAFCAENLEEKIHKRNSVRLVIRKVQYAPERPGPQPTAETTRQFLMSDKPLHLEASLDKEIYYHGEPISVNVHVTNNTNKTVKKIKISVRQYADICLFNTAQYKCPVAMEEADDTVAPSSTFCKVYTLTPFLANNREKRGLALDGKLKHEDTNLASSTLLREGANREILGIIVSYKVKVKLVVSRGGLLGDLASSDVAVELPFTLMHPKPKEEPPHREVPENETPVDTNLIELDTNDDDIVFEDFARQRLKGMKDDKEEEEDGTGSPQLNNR
UniProt P34947: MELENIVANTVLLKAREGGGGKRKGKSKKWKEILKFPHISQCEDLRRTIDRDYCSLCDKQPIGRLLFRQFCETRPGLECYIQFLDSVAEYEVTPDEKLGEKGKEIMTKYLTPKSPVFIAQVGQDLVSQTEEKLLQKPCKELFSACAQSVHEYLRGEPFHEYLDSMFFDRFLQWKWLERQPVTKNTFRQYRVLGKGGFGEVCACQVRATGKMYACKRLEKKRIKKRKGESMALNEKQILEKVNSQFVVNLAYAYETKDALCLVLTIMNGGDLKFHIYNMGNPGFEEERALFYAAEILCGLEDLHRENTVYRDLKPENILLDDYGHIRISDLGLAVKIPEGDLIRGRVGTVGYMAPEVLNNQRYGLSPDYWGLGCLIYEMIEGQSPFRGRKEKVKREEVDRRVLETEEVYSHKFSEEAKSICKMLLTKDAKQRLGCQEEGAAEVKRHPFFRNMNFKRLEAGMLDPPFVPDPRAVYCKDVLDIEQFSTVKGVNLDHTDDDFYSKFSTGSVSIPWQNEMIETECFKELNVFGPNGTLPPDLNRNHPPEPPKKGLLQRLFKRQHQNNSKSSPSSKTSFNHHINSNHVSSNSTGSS
UniProt P43250: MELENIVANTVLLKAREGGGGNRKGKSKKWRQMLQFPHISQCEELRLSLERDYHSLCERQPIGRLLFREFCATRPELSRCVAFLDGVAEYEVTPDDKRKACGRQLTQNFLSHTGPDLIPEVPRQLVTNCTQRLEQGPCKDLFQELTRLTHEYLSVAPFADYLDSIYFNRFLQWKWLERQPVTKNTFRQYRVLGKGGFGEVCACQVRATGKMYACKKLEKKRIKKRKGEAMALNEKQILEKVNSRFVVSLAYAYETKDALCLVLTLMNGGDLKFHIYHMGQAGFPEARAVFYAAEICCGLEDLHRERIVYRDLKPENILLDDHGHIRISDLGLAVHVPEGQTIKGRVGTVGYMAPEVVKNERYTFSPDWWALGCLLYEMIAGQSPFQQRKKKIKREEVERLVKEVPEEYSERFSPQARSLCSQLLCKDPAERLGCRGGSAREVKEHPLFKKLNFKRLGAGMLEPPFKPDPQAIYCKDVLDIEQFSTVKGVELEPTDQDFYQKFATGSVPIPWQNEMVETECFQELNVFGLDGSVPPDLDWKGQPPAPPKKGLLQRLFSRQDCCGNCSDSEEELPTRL

Assays:
[1] = molecular target: AT1R T336A (phospho-code single-Ala mutant) (human) (UniProt P30556); assay: split reporter; NanoBiT β-arrestin-recruitment assay: AT1R-Sm and Lg-β-arrestin co-expressed in parent HEK293A cells (also ΔGRK2/3 and ΔGRK5/6 cells); living cells in suspension, HBSS with 0.01% BSA and 5 mM HEPES pH 7.4, coelenterazine, room temperature; 1 µM Ang II or 1 µM TRV027, with or without 1 µM YM-254890; Go6983 pretreatment
[2] = molecular target: AT1R S328A (phospho-code single-Ala mutant) (human) (UniProt P30556); assay: as above
[3] = molecular target: AT1R T332A (phospho-code single-Ala mutant) (human) (UniProt P30556); assay: as above
[4] = molecular target: AT1R S335A (phospho-code single-Ala mutant) (human) (UniProt P30556); assay: as above
[5] = molecular target: AT1R S338A (phospho-code single-Ala mutant) (human) (UniProt P30556); assay: as above
[6] = molecular target: AT1R S331A (phospho-code single-Ala mutant) (human) (UniProt P30556); assay: as above
[7] = molecular target: AT1R-Sm (angiotensin II type-1 receptor C-terminally fused to SmBiT) (human) (UniProt P30556); assay: as above
[8] = molecular target: AT1R S326A (phospho-code single-Ala mutant) (human) (UniProt P30556); assay: as above
[9] = molecular target: AT1R-Sm (angiotensin II type-1 receptor C-terminally fused to SmBiT) (human) (UniProt P30556); assay: split reporter; NanoBiT β-arrestin-recruitment assay as a1, but in ΔGRK2/3/5/6 cells (GRK2, GRK3, GRK5 and GRK6 deleted); Ang II stimulation, Go6983 pretreatment
[10] = molecular target: ∆tail-phos AT1R (C-terminally phosphorylation-deficient AT1R, all twelve Ser and Thr of the C-terminal region replaced with Ala) (human) (UniProt P30556); assay: split reporter; NanoBiT β-arrestin-recruitment assay: AT1R-Sm and Lg-β-arrestin co-expressed in parent HEK293A cells (also ΔGRK2/3 and ΔGRK5/6 cells); living cells in suspension, HBSS with 0.01% BSA and 5 mM HEPES pH 7.4, coelenterazine, room temperature; 1 µM Ang II or 1 µM TRV027, with or without 1 µM YM-254890; Go6983 pretreatment
[11] = molecular target: Gαq-Lg (human Gαq subunit with LgBiT inserted into the helical domain between residues 123-124) (human) (UniProt P50148); assay: split reporter; Gαq-GRK proximity assay: Gαq-Lg and Sm-GRK5 or Sm-GRK6 co-expressed with Gβ1, Gγ2, RIC8A and AT1R in parent cells; basal signal and change after 1 µM Ang II, 1 µM TRV027 or Ang II + 1 µM YM-254890
[12] = molecular target: Gαq-Lg (human Gαq subunit with LgBiT inserted into the helical domain between residues 123-124) (human) (UniProt P50148); assay: split reporter + FRET or BRET; NanoBiT-BRET imaging of single living parent cells: Gαq-Lg, Sm-GRK6 and AT1R-mVenus co-expressed with Gβ1, Gγ2 and RIC8A; furimazine; before and after vehicle, Ang II, TRV027 or Ang II + YM-254890; controls with HaloTag-fused AT1R or NanoLuc-fused Gαi1

Substance	binding [7]	binding [9]	binding [10]	binding [11]	also measured
Lg-β-arrestin1 (LgBiT-fused β-arrestin1) (from UniProt P49407 1-418)	binds	no binding (condition: in ΔGRK2/3/5/6 cells)			binding [1]: binds; binding [2]: binds; binding [3]: binds; binding [4]: binds; binding [5]: binds; binding [6]: binds; binding [8]: binds
Lg-β-arrestin1 with the truncation in the finger-loop region (∆FLR) (from UniProt P49407 1-418)	binds				
Lg-β-arrestin2 (LgBiT-fused β-arrestin2) (from UniProt P32121 1-409)	binds	binds weakly	binds weakly		
Lg-β-arrestin2 with the truncation in the finger-loop region (∆FLR) (from UniProt P32121 1-409)	binds	no binding (condition: in ΔGRK2/3/5/6 cells)	no binding		
Sm-GRK5 (GRK5 N-terminally fused to SmBiT) (from UniProt P34947 1-590) (enzyme)				binds	
Sm-GRK6 (GRK6 N-terminally fused to SmBiT) (from UniProt P43250 1-576) (enzyme)				binds	binding [12]: binds
